{"source": "patent US11000555B2", "about": "“Method for preparing a limax compound and therapeutic use thereof” (GUANGXI JIUFU BIOTECHNOLOGY CO., LTD, priority 2017, dated 2021)", "test_system": "rats", "assay": "Physical dependence test: induced withdrawal test for the rats", "conditions": "morphine hydrochloride sc twice a day, increasing 5 to 60 mg/kg, 7 days; naloxone 5 mg/kg ip day 8", "description": "The compound group was administered (ig) twice a day according to the dose increasing principle, at daily doses of 0.5, 1.0, 1.5, 2.0, 2.5, 3.0 g/kg. The dose was increased every day from 0.5 g/kg to 3.0 g/kg on day 6 which was adopted the same on day 7. The negative control group was given (ig) the same volume of vegetable oil per day at the same time and for the same times as the compound group. On day 8, the rats in each group were given naloxone (5 mg/kg, ip) to induce withdrawal, and the withdrawal status of the rats within 30 min and the weight change one hour before and after the inducement were observed. The evaluation criteria of withdrawal symptoms of rats were established by referring to the Tomoji Yanagita evaluation criteria and our pre-experimental results (see Appendix Table 17). The withdrawal scores and weight loss values of each group of rats were statistically processed. Weight loss value=weight before inducement−weight after inducement.", "data": [{"smiles": "CN1CC[C@]23c4c5ccc(O)c4O[C@H]2[C@@H](O)C=C[C@H]3[C@H]1C5.Cl", "note": "[Morphine, Morphine hydrochloride]", "values": [{"measurement": "Weight loss", "result": "9.5 ± 3.62", "unit": "g"}]}]}
